# Measured values published in the supplement of paper PMC5949888.
# Most values lie at the floor of the assay. Slopes are relative: functional sequences can read slightly below zero.
# Test system: Saccharomyces cerevisiae PS128 hsf1 delta, HSF1(1-493) fusion
# Assay: growth estimate (transactivation domain function in HSF1 fusion, heat-shock survival) (a.u. (slope of normalised read count over time)); higher = stronger growth at 37°C, i.e. more transactivation activity
# Conditions: library: random library
row,Substance,growth estimate
1,RVHLLYFGGCIHGGWAVHPP,< -0.25
2,RVICGGALNLRATAADFQGG,< -0.25
3,RVIGGTGDTGYN,< -0.25
4,RVILWMPSRVRTRAAIRLTF,< -0.25
5,RVIQSRGMPVEKYEHWFKSQ,< -0.25
6,RVISDVYHSDFLLVRFRDKH,< -0.25
7,RVKCRYSRPLAGYTGPGRIM,< -0.25
8,RVLASYRRLIGLGRIFVQFP,< -0.25
9,RVLDSVRRAGRAALCIGLPE,< -0.25
10,RVLGHRPRTPRMVKF,-0.199
11,RVLPGGSVTCN,< -0.25
12,RVLPTSPGLGRGDDCLVHHD,< -0.25
13,RVLPVLLLISQGMCT,< -0.25
14,RVLQPNMGR,< -0.25
15,RVLWGPVLTRLYGLRRIKES,< -0.25
16,RVMLGSDGSLVPMPTCITPT,< -0.25
17,RVNGRVKSV,< -0.25
18,RVNIEVRLCGQAARYGRYQR,< -0.25
19,RVNYRGWF,< -0.25
20,RVPANRTRSMSIIVYPDHVA,< -0.25
21,RVPDTPRVLRTT,< -0.25
22,RVPISVATNGEIRGLLRLVR,-0.246
23,RVPQFRQLSIWNKKLLWVRH,< -0.25
24,RVPSLDKRKRIHPRVVQSFP,< -0.25
25,RVRDLKRRGD,< -0.25

row,Substance,growth estimate
1,RVRDTACIIKPHRRWG,< -0.25
2,RVRDVKQLALLTSGDECHPD,< -0.25
3,RVRGGLNKCVGAGKHRQLRH,< -0.25
4,RVRGVGMMCRILVGYHTDDE,< -0.25
5,RVRGYTVYLACVQKRHLGCV,< -0.25
6,RVRPANERVDYLTRVSLEHI,< -0.25
7,RVRSGNHSFVDDPDINSSVH,< -0.25
8,RVS,< -0.25
9,RVSAEARVGMQAARTQFVGS,< -0.25
10,RVSGGRCKRHPLVERWTRLS,< -0.25
11,RVSGVFSHRTIGLRILIADI,< -0.25
12,RVSKGVIIGRRLILLSIQTS,< -0.25
13,RVSKPMARMDA,< -0.25
14,RVSQDAR,< -0.25
15,RVSREVTSPDQ,< -0.25
16,RVSRTYYILGHGPVVIAETK,< -0.25
17,RVSTSRPLVFRKLVRRWSER,< -0.25
18,RVSWDHTSGAPIIDLIGL,< -0.25
19,RVTESESKSQRCEPEDMLVC,< -0.25
20,RVTTGVNRNSVRFVG,< -0.25
21,RVVA,< -0.25
22,RVVG,< -0.25
23,RVVNPPLSLPAGRRGLKPRI,< -0.25
24,RVVQMQHRRALYARETGRIR,< -0.25
25,RVVRLKSY,< -0.25

row,Substance,growth estimate
1,RVVRLVGAASPFCNEISGVA,< -0.25
2,RVW,< -0.25
3,RVWCNCPTWAMSAGSFRDSS,< -0.25
4,RVWKSLG,< -0.25
5,RVWRVNEKVGLLVHHRCVFP,< -0.25
6,RVYASRCPT,< -0.25
7,RVYCVLRVE,< -0.25
8,RVYNGYSCKLE,< -0.25
9,RWAISQSGFKAVMVTRARKR,< -0.25
10,RWDRNDRMYLRRYRASRFSR,< -0.25
11,RWEIAFPETFCGPLMIKAPR,< -0.25
12,RWF,< -0.25
13,RWFINTSVLLDRSSMKKYQS,< -0.25
14,RWGGWTVS,< -0.25
15,RWGLQVTKQRERVGVMAQRV,< -0.25
16,RWHVMGLG,< -0.25
17,RWI,< -0.25
18,RWIEEICLEGARGRLWIQPF,< -0.25
19,RWIELAIRNTHVAGHSSGAL,< -0.25
20,RWKLYETSLSSCVE,< -0.25
21,RWKMRGEDKASGCGQVACRV,< -0.25
22,RWLKET,< -0.25
23,RWLPTRGRTGGQTTLGKLAP,< -0.25
24,RWLS,< -0.25
25,RWLWSSDPGTYALTLVICRS,< -0.25

row,Substance,growth estimate
1,RWNERFVPWIWWIPPVSGSV,< -0.25
2,RWNGYVASYY,< -0.25
3,RWREEVWRRL,< -0.25
4,RWRPGTAGGSGHN,-0.246
5,RWRYQHGL,< -0.25
6,RWSLHRSCPVES,< -0.25
7,RWSLLHPSLQPAAPWTRSVG,< -0.25
8,RWTSYSIASGGSGCTSV,< -0.25
9,RWTVTPGRIEVSAVSGFRQA,< -0.25
10,RWVSICNRSEGGWS,< -0.25
11,RWWVYGESLILSERKRLAGV,< -0.25
12,RYANEAGVCRPLHPTSRTHL,< -0.25
13,RYAQEIDKGT,< -0.25
14,RYATRVPA,< -0.25
15,RYDMLGAGPRTKSPGSGSTR,< -0.25
16,RYELKVFDDHIVTPYSELMD,< -0.25
17,RYFK,< -0.25
18,RYFLGKEPGRE,< -0.25
19,RYFPAVD,< -0.25
20,RYIRARAFALFNWCETL,< -0.25
21,RYITT,< -0.25
22,RYKG,< -0.25
23,RYKIS,< -0.25
24,RYKLSRYIVATRG,< -0.25
25,RYKTQPKNHPVLKPLELRQS,< -0.25

row,Substance,growth estimate
1,RYLKSPRGPCMFPTGKGKVD,< -0.25
2,RYLQESYSVLMPPGPPACRH,< -0.25
3,RYLRLSSA,< -0.25
4,RYLYRKWSY,< -0.25
5,RYLYTAYCVVAGTHVSNQGV,< -0.25
6,RYQ,< -0.25
7,RYRDNGTAEVYEWRVVYPWF,< -0.25
8,RYRLV,< -0.25
9,RYRNGERFRRAPPGCSFPGR,< -0.25
10,RYRPRSCRILFYVRQCTYPR,< -0.25
11,RYRSNTRLGRWTGGPTACED,< -0.253
12,RYRVGLRT,< -0.25
13,RYSACHRNLCSSPLYIVEGD,< -0.25
14,RYSQLGSIVEGAGDDALILG,< -0.25
15,RYSRKDRVTLQLVTTRITRG,< -0.25
16,RYSYEPEQPVEREGGSPCTI,< -0.25
17,RYSYKWMEDWSTALRDSVRR,< -0.25
18,RYTLADRCGQKLKNSGGRSC,< -0.25
19,RYTRLRQPRDVTSLHLSHVR,< -0.25
20,RYTRREHFCTNHRISGKSRV,< -0.25
21,RYVLIVVESRYLTRGV,< -0.25
22,RYVSARGP,< -0.25
23,RYWHIKDLLRRRGLHSGLGK,< -0.25
24,SAAIGWNRVTAAPVAIGIET,< -0.25
25,SAALSQFDRGAVLDILFVGT,-0.189

# A run of entries of the results above:
row,Substance,growth estimate
10,RVSGGRCKRHPLVERWTRLS,< -0.25
11,RVSGVFSHRTIGLRILIADI,< -0.25
12,RVSKGVIIGRRLILLSIQTS,< -0.25
13,RVSKPMARMDA,< -0.25
14,RVSQDAR,< -0.25
15,RVSREVTSPDQ,< -0.25
16,RVSRTYYILGHGPVVIAETK,< -0.25

# (cont.)

row,Substance,growth estimate
1,SAAPVRFPVRTVARLRRAVA,-0.246
2,SADSCALVDPFSMY,< -0.25
3,SAE,< -0.25
4,SAEDVPGSNFMLPMGIGVCK,-0.245
5,SAELIKRRKKDRELAPSHWD,< -0.25
6,SAF,< -0.25
7,SAFKP,< -0.25
8,SAFRY,< -0.253
9,SAGAA,< -0.25
10,SAGDTAWLNCSQEQMSSCVP,< -0.25
11,SAGFPV,< -0.25
12,SAGGC,< -0.25
13,SAGSCGIIMT,< -0.25
14,SAGVQGTTDE,< -0.25
15,SAGVSCEIV,< -0.25
16,SAHRSPLLTVCFGVFARSPI,< -0.25
17,SAIFQLKTVAVSLAERVLWP,< -0.25
18,SAIGHFKVTSRMVNHGPQPG,< -0.25
19,SALEVSWI,< -0.25
20,SALLCVSDRRLSVSWGFHRC,< -0.25
21,SALSYPSTSSR,< -0.25
22,SANAGKMYL,< -0.25
23,SANLAD,< -0.25
24,SAP,< -0.25
25,SAPEAAALKEEVNSTGHRTL,< -0.25

row,Substance,growth estimate
1,SAPVP,< -0.25
2,SAQASKLP,< -0.25
3,SAQSFGLIRKAGAVRQHQGG,< -0.25
4,SAQVSRGDAGGSWPTDAPSS,< -0.25
5,SARAGAGNLDNIEKANSMGT,< -0.25
6,SARGMDLLGVGMYLISLSFI,-0.19
7,SARLTSYWVRSECLYASLTK,< -0.25
8,SARMGRALDM,-0.248
9,SARSQECNSAGSRVYPRCTL,< -0.25
10,SARWRAKRPLLLHLRIPVAN,< -0.25
11,SASATYSKRSD,< -0.25
12,SASQQRRFKPSEMVRHISSG,< -0.25
13,SATMGWSQDGPRSDCRSGGH,< -0.25
14,SATREHRSKDQSQELTSRGL,< -0.25
15,SATTLSVSFLMRHGLDDSNR,< -0.25
16,SAVDH,< -0.25
17,SAVQWV,< -0.25
18,SAVRNEISVISPDVDVRHMS,< -0.25
19,SAVVQGGPPYPNGRVCRVGF,< -0.25
20,SAVVSGSGHTAMSGSRILTQ,< -0.25
21,SAWWGPANIGKA,-0.243
22,SAYIVDHLRVWNSA,< -0.25
23,SCELALARA,< -0.25
24,SCFFRVYSAGCH,< -0.25
25,SCFNSSLTPARVQFWRLRPC,< -0.25

row,Substance,growth estimate
1,SCGFSVVRRLRVGTNRCP,< -0.25
2,SCGPSA,< -0.25
3,SCGRTESAIRHCGAQLRASS,< -0.25
4,SCGSHLSEPM,-0.18
5,SCGTESYPARDHRHRQC,< -0.25
6,SCHIPFTMALQKSGFPRVRE,< -0.25
7,SCIGSES,< -0.25
8,SCIGSMSVSGVGR,< -0.25
9,SCIKIGKFIRKNLLNATPRH,< -0.25
10,SCIPLKICMGWRSPEVTVKV,< -0.25
11,SCISRHPSYRSRHRRAFVSP,< -0.25
12,SCLLEADHLKPVSSRLNSGG,< -0.25
13,SCLLHSYLPRVMSVC,< -0.25
14,SCLRVPLDLGYMYSVLTIRY,< -0.25
15,SCLRYTGNKVVRSGSYT,< -0.25
16,SCNRKKWVVQY,< -0.25
17,SCPGSCRIMRRAWGVFICKA,< -0.25
18,SCPGTVELYESRESYGASAL,< -0.25
19,SCQARIWRILNQSEPCKSAS,< -0.25
20,SCSDRGPKKCGACSTE,< -0.25
21,SCSGEERRELSHSVSAGGYS,< -0.25

# Rewritten bar-delimited: part of the list above.
row | Substance | growth estimate
18 | SAVRNEISVISPDVDVRHMS | < -0.25
17 | SCPGSCRIMRRAWGVFICKA | < -0.25
